Measured values as given in US12144864B2 (Regeneron Pharmaceuticals, Inc., priority 2018, dated 2024).

Experiment: peptide synthesis
[1] = whole synthesis, HPLC-MS, Agilent 1200 HPLC/6100 SQ, C18 columns, DAD (214 nm and 254 nm), ELSD
[2] = conjugation step, HPLC-MS, Agilent 1200 HPLC/6100 SQ, C18 columns, DAD (214 nm and 254 nm), ELSD

In the case of “(2S,4R)-4-({2-[(1R,3R)-1-(Acetyloxy)-4-methyl-3-[(2S,3S)-3-methyl-2-{[(2R)-1-methylpiperidin-2-yl]formamido}-N-(pent-4-yn-1-yloxy)pentanamido]pentyl]-1,3-thiazol-4-yl}formamido)-5-(4-aminophenyl)-2-methylpentanoic acid”, the step yield (coupling step) is reported as 60% and the “final HPLC purity” value (coupling step, Method A) is reported as greater than 99%.
In the case of “(4S)-4-({2-[(1R,3R)-1-(Acetyloxy)-3-[(2S,3S)—N-(hex-5-yn-1-yl)-3-methyl-2-{[(2R)-1-methylpiperidin-2-yl]formamido}pentanamido]-4-methylpentyl]-1,3-thiazol-4-yl}formamido)-5-(4-fluorophenyl)-2,2-dimethylpentanoic acid”, the step yield (coupling step) is reported as 16% yield, the “final HPLC purity” value (coupling step, Method B) is reported as greater than 99% and the “final HPLC purity” value [1] is reported as 100%.
For “(2S,4R)-4-({2-[(1R,3R)-1-(Acetyloxy)-4-methyl-3-[(2S,3S)-3-methyl-2-{[(2R)-1-methylpiperidin-2-yl]formamido}-N-(pent-4-yn-1-yloxy)pentanamido]pentyl]-1,3-thiazol-4-yl}formamido)-5-(4-hydroxyphenyl)-2-methylpentanoic acid”, the step yield (coupling step) was 39% and the “final HPLC purity” value (coupling step, Method A) was greater than 99%.
For “(4S)-4-({2-[(1R,3R)-1-(Acetyloxy)-3-[(2S,3S)—N-(hex-5-yn-1-yl)-3-methyl-2-{[(2R)-1-methylpiperidin-2-yl]formamido}pentanamido]-4-methylpentyl]-1,3-thiazol-4-yl}formamido)-2,2-dimethyl-5-phenylpentanoic acid”, the step yield (coupling step) was 10% yield, the “final HPLC purity” value (coupling step, Method A) was greater than 99% and the “final HPLC purity” value [1] was 100%.
“(2S,4R)-4-(2-((1R,3R)-1-Acetoxy-3-((2S,3S)—N-(3-hydroxypropoxy)-3-methyl-2-((R)-1-methylpiperidine-2-carboxamido)pentanamido)-4-methylpentyl)thiazole-4-carboxamido)-5-(4-hydroxyphenyl)-2-methylpentanoic acid” showed a step yield (late stage modification step) of 41%.
For “(4S)-4-({2-[(1R,3R)-1-(Acetyloxy)-3-[(2S,3S)—N-hexyl-3-methyl-2-{[(2R)-1-methylpiperidin-2-yl]formamido}pentanamido]-4-methylpentyl]-1,3-thiazol-4-yl}formamido)-5-{4-[(2S)-2-[(2S)-2-[1-(4-{2-azatricyclo[10.4.0.04,9]hexadeca-1(12),4(9),5,7,13,15-hexaen-10-yn-2-yl}-4-oxobutanamido)-3,6,9,12-tetraoxapentadecan-15-amido]-3-methylbutanamido]propanamido]-3-fluorophenyl}-2,2-dimethylpentanoic acid”, the “final HPLC purity” value [2] was 99%, the conjugation yield (conjugation step, run 1) was 65% and the conjugation yield (conjugation step, run 2) was 35%.
For “(4S)-4-({2-[(1R,3R)-1-(acetyloxy)-3-[(2S,3S)—N-(hex-5-yn-1-yl)-3-methyl-2-{[(2R)-1-methylpiperidin-2-yl]formamido}pentanamido]-4-methylpentyl]-1,3-thiazol-4-yl}formamido)-5-(4-{[({4-[(2S)-2-[(2S)-2-[1-(4-{2-azatricyclo[10.4.0.04,9]hexadeca-1(12),4(9),5,7,13,15-hexaen-10-yn-2-yl}-4-oxobutanamido)-3,6,9,12-tetraoxapentadecan-15-amido]-3-methylbutanamido]-2-[2-(carbamoylamino)ethoxy]acetamido]phenyl}methoxy)carbonyl]amino}phenyl)-2,2-dimethylpentanoic acid”, the “final HPLC purity” value [2] was 90%.
In the case of “(4S)-5-(4-Aminophenyl)-4-({2-[(1R,3R)-1-[(ethylcarbamoyl)oxy]-4-methyl-3-[(2S,3S)-3-methyl-2-{[(2R)-1-methylpiperidin-2-yl]formamido}-N-(pent-4-yn-1-yloxy)pentanamido]pentyl]-1,3-thiazol-4-yl}formamido)-2,2-dimethylpentanoic acid”, the step yield (coupling step, in 3 steps) is reported as 27% and the “final HPLC purity” value (whole synthesis, method B) is reported as greater than 99%.
With “(4S)-4-({2-[(1R,3R)-1-(Acetyloxy)-4-methyl-3-[(2S,3S)-3-methyl-2-{[(2R)-1-methylpiperidin-2-yl]formamido}-N-(pent-4-yn-1-yloxy)pentanamido]pentyl]-1,3-thiazol-4-yl}formamido)-5-[4-(2-{2-[2-(cyclooct-2-yn-1-yloxy)acetamido]acetamido}acetamido)phenyl]-2,2-dimethylpentanoic acid” the conjugation yield (conjugation step) was 47% and the “final HPLC purity” value [2] was greater than 95%.
For “(4S)-4-({2-[(1R,3R)-1-(acetyloxy)-4-methyl-3-[(2S,3S)-3-methyl-2-{[(2R)-1-methylpiperidin-2-yl]formamido}-N-(pentyloxy)pentanamido]pentyl]-1,3-thiazol-4-yl}formamido)-5-(4-{2-[(2S)-2-{2-[2-(4-{2-azatricyclo[10.4.0.04,^9]hexadeca-1(12),4(9),5,7,13,15-hexaen-10-yn-2-yl}-4-oxobutanamido)acetamido]acetamido}-3-phenylpropanamido]acetamido}phenyl)-2,2-dimethylpentanoic acid”, the conjugation yield (conjugation step) was 80% and the “final HPLC purity” value [2] was greater than 99%.
With “(S)-4-(2-((1R,3R)-1-acetoxy-4-methyl-3-((2S,3S)-3-methyl-2-((R)-1-methylpiperidine-2-carboxamido)-N-(4-(1-phenyl-1H-1,2,3-triazol-4-yl)butyl)pentanamido)pentyl)thiazole-4-carboxamido)-5-(4-aminophenyl)-2,2-dimethylpentanoic acid” the step yield (late stage modification step) was 40% yield and the “final HPLC purity” value [1] was 100%.
In the case of “(4S)-4-({2-[(1R,3R)-1-(Acetyloxy)-4-methyl-3-[(2S,3S)-3-methyl-2-{[(2R)-1-methylpiperidin-2-yl]formamido}-N-(pent-4-yn-1-yloxy)pentanamido]pentyl]-1,3-thiazol-4-yl}formamido)-5-{4-[2-(2-aminoacetamido)acetamido]phenyl}”, the step yield (coupling step) is reported as 48%.
With “(S)-4-(2-((1R,3R)-1-Acetoxy-3-((2S,3S)—N-(hex-5-ynyl)-3-methyl-2-((R)-1-methylpiperidine-2-carboxamido)pentanamido)-4-methylpentyl)thiazole-4-carboxamido)-5-(4-(benzyloxy)-3-nitrophenyl)-2,2-dimethylpentanoic acid” the step yield (coupling step) was 40%.
With “(2S,4R)-4-({2-[(1R,3R)-1-(Acetyloxy)-4-methyl-3-[(2S,3S)-3-methyl-2-{[(2R)-1-methylpiperidin-2-yl]formamido}-N-(pent-4-yn-1-yloxy)pentanamido]pentyl]-1,3-thiazol-4-yl}formamido)-5-(4-fluorophenyl)-2-methylpentanoic acid” the step yield (coupling step) was 20% and the “final HPLC purity” value (coupling step, Method B) was 98%.
For “(S)-4-(2-((1R,3R)-1-Acetoxy-3-((2S,3S)—N-(4-(1-(3-carboxypropyl)-1H-1,2,3-triazol-4-yl)butyl)-3-methyl-2-((R)-1-methylpiperidine-2-carboxamido)pentanamido)-4-methylpentyl)thiazole-4-carboxamido)-5-(4-aminophenyl)-2,2-dimethylpentanoic acid”, the step yield (late stage modification step, 2 steps) was 11% yield in 2 steps and the “final HPLC purity” value [1] was 95.6%.
Substance “(2S,4R)-5-(4-Hydroxyphenyl)-4-(2-((7R,9R)-9-isopropyl-10-((2S,3S)-3-methyl-2-((R)-1-methylpiperidine-2-carboxamido)pentanoyl)-5-oxo-6,11-dioxa-4,10-diazaheptadecan-7-yl)thiazole-4-carboxamido)-2-methylpentanoic acid” has a step yield (coupling step) of 40%.
